From PubChem BioAssay AID624297 (National Center for Advancing Translational Sciences (NCATS), 2012)
Out of some 340,000 compounds screened, about 6,200 (1.8%) were called active. Inconclusive results, whose numbers are uncertain, are shown with a selection of clear calls. The call rests on the fitted dose curve; in most records, active means well fitted activation curve with a large enough effect; inconclusive means small, poorly fitted or top-dose-only effect; inactive means no such curve, though single readings can be large or run the other way. A potency beside an inconclusive call is a rough fit, not a confirmed value.

Assay: A quantitative high throughput screen for small molecules that induce DNA re-replication in SW480 colon adenocarcinoma cells. Further: nearly all actives have a fitted effect of over 55% in size. On re-replication activation: % of control where 0% means no effect.
Conditions: Hoechst DNA content imaging, 48 h; re-replication activation: at 46.1 µM (top of the series) unless noted
Summary of the method: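 Compounds, transferred as 23 nL by pin tool, were incubated with cells for 48 hr; DNA content per nucleus was then quantified by Hoechst staining and fluorescence plate imaging.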
Potency means the concentration at half of the fitted maximal effect.

Row | SMILES | Potency | re-replication activation
1 | Oc1ccc(N2CCN(Cc3ccc(OCCCN4CCCCC4)cc3)CC2)cc1 | inconclusive: 20.6 µM [activator, single point] | 
2 | COc1cccc(C(c2nnnn2Cc2ccco2)N2CCN(c3cccc(C)c3C)CC2)c1OC (stereo not given) | inconclusive: 22.4 µM [activator, single point] | 
3 | CC(CCN1CCC(n2nccc2NC(=O)c2ccccc2Cl)CC1)c1ccccc1 (stereo not given) |  | inactive: 21.6%
4 | NNC(=O)c1csc(-c2cccc(C(F)(F)F)c2)n1 | inconclusive: 2.59 µM [activator, full curve, poor fit] | 
5 | CCOc1ccccc1-n1c(SCC(=O)N2CCCc3ccccc32)nnc1-c1cccnc1 |  | inactive: -72.8%
6 | CN(C(=O)COC(=O)c1ccc(NS(=O)(=O)c2cccs2)cc1)C1CCCCC1 | inconclusive: 2.59 µM [activator, full curve, poor fit] | 
7 | C=CCOc1c(Br)cc(CNc2ccc(NC(=O)C(C)C)c(OC)c2)cc1OCC | inconclusive: 29.1 µM [activator, single point] | 
8 | CC1(C)COC(c2ccc(F)c([N+](=O)[O-])c2)=N1 | inconclusive: 35.5 µM [activator, single point] | 
9 | O=C(O)c1cccc2c1/C(=N/O)c1ccccc1-2 | inconclusive: 0.116 µM [activator, full curve, poor fit] | 
10 | O=C(Nc1ccc2oc(-c3cccc(F)c3)nc2c1)c1ccccc1F | inconclusive: 32.6 µM [activator, partial curve, poor fit] | 
11 | c1ccc(CCn2nnnc2C(c2cccs2)N2CCN(Cc3ccc4c(c3)OCO4)CC2)cc1 (stereo not given) | inconclusive: 16.4 µM [activator, single point] | 
12 | CCOCCCN(Cc1ccco1)S(=O)(=O)c1csc(C(N)=O)c1 | inconclusive: 20.6 µM [activator, single point] | 
13 | CNCc1ccccc1Sc1ccc(O)c(O)c1 | inconclusive: 20.6 µM [activator, single point] | 
14 | COc1ccc(NC(=O)C2CCCN2S(=O)(=O)c2cccc3nsnc23)c(OC)c1 (stereo not given) | inconclusive: 13 µM [activator, partial curve, poor fit] | 
15 | O=C(COc1ccccc1)NNC(=O)c1ccc(Cl)cc1 | inconclusive: 16.4 µM [activator, single point] | 
16 | Cc1ccc(-c2c(C#N)c(N)n(-c3ccc(C)cc3)c(=O)c2C#N)cc1 | inconclusive: 20.6 µM [activator, single point] | 
17 | Cc1ccc(Oc2ccccc2/C=C2\SC(=O)N(C)C2=O)cc1 | inconclusive: 32.6 µM [activator, partial curve, poor fit] | 
18 | COc1ccc(C)cc1N1CC(C(=O)OCc2nc(N)nc(Nc3ccccc3C)n2)CC1=O (stereo not given) | inconclusive: 2.31 µM [activator, full curve, poor fit] | 
19 | CC(C)Oc1ccc(CN=C(N)N=C(N)N)cc1Cl |  | inactive: 21.2%
20 | Cc1cccc(NC(=S)N(CCCN2CCOCC2)Cc2cn(C)c3ccccc23)c1 | inconclusive: 29.1 µM [activator, single point] | 
21 | CC(NCc1cccc(OCc2ccccc2)c1)C(O)c1ccccc1 (stereo not given) | inconclusive: 20.6 µM [activator, single point] | 
22 | COc1ccc(S(=O)(=O)Nc2cc(Sc3ncn[nH]3)c(O)cc2C)cc1 | inconclusive: 2.91 µM [activator, partial curve, poor fit] | 

Row | SMILES | Potency | re-replication activation
23 | Cc1cc(SCC(=O)OCC(=O)N(C)c2ccccc2)nc2ccccc12 | inconclusive: 3.66 µM [activator, full curve, poor fit] | 
24 | c1csc(-c2nn3c(C4COc5ccccc5O4)nnc3s2)c1 (stereo not given) | active: 3.66 µM | 
25 | O=C(OCCN(C1=NS(=O)(=O)c2ccccc21)c1ccccc1Cl)c1ccc(Cl)cc1 |  | inactive: 6.94%
26 | COc1ccc(N2CCN(C(=O)c3ccc4nc(N5CCCCC5)sc4c3)CC2)cc1 | inconclusive: 23.1 µM [activator, partial curve, poor fit] | 
27 | COc1cc(/C=N/O)ccc1OCc1ccccc1Cl |  | inactive: -10.3%
28 | COc1cccc(Nc2nn3c(=O)c4ccccc4nc3s2)c1 |  | inactive: -53.7% [at 9.22 µM]
29 | C/C=C/c1ccc(OCCNCc2ccccc2)c(OC)c1 | inconclusive: 25.9 µM [activator, partial curve, poor fit] | 
30 | Cc1[nH]n(-c2ccccc2)c(=O)c1C(C[N+](=O)[O-])c1ccc(Br)cc1 (stereo not given) | inconclusive: 25.9 µM [activator, single point] | 
31 | O=C(CCS(=O)(=O)c1ccccc1)Nc1nc(-c2ccccn2)cs1 | inconclusive: 18.4 µM [activator, single point] | 
32 | CCOc1cc(NCc2ccccc2)c2ncn(C(C)C)c2c1 | inconclusive: 29.1 µM [activator, partial curve, poor fit] | 
33 | C=C1CCC2[C@](C)(CO)C(O)CC[C@]2(C)C1C/C=C1/C(=O)OCC1O (stereo not given in full) | inconclusive: 9.44 µM [activator, partial curve, poor fit] | 
34 | CC(=O)CSc1nnc2c3ccccc3nc(C(C)(C)C)n12 | inconclusive: 16.4 µM [activator, single point] | 
35 | CCCCSc1nnc(CCNC(=O)OC(C)(C)C)o1 | inconclusive: 6.51 µM [activator, single point] | 
36 | COCCN1C(=O)c2ccc(C(=O)NCc3cccnc3)cc2C1=O | inconclusive: 0.0058 µM [activator, full curve, poor fit] | 
37 | O=C1NC(=S)S/C1=C/c1ccc(N2CCOCC2)o1 | inconclusive: 32.6 µM [activator, partial curve, poor fit] | 
38 | COc1ccc(NC(=O)Cn2nnc(-c3ccccc3NC(=O)c3cccs3)n2)cc1 | inconclusive: 25.9 µM [activator, single point] | 
39 | COc1cccc(/C=C2/CN(C)CC3=C2OC(N)=C(C#N)C3c2cccc(OC)c2)c1 (stereo not given) | inconclusive: 29.1 µM [activator, partial curve, poor fit] | 
40 | O=C(C[C@@H]1C/C=C\CCC(=O)OC[C@H](Cc2ccccc2)NC1=O)N[C@@H](CO)Cc1ccccc1 | inconclusive: 0.164 µM [activator, full curve, poor fit] | 
41 | Cc1c(C(C)(C)O)[nH]c2ccc(C#N)cc12 | inconclusive: 2.31 µM [activator, single point] | 
42 | COc1cc(/C=N/NC(=S)NC2CC3CC2C2C=CCC32)ccc1O (stereo not given) | inconclusive: 29.1 µM [activator, single point] | 
43 | CSc1ncccc1C(=O)NC1CCN(Cc2ccccc2)CC1 |  | inactive: -1.3%
44 | CCCCN(C)C(=O)C1CCN(Cc2ccc(OCc3ccccc3)cc2)CC1 | inconclusive: 29.1 µM [activator, single point] | 

Part of the list above, reformatted:

| Row | SMILES | Potency | re-replication activation |
| --- | --- | --- | --- |
| 33 | C=C1CCC2[C@](C)(CO)C(O)CC[C@]2(C)C1C/C=C1/C(=O)OCC1O (stereo not given in full) | inconclusive: 9.44 µM [activator, partial curve, poor fit] |  |
| 34 | CC(=O)CSc1nnc2c3ccccc3nc(C(C)(C)C)n12 | inconclusive: 16.4 µM [activator, single point] |  |
| 35 | CCCCSc1nnc(CCNC(=O)OC(C)(C)C)o1 | inconclusive: 6.51 µM [activator, single point] |  |

(next part)

Row | SMILES | Potency | re-replication activation
45 | COc1ccc2cc3c(N)nn(C(=O)c4ccc(F)cc4)c3nc2c1 | inconclusive: 20.6 µM [activator, single point] | 
46 | Cc1ccc(-n2ncc3c(N4CCC5(CC4)OCCO5)ncnc32)c(C)c1 |  | inactive: 22%
47 | CC(=O)N=c1c(C#N)cc2c(=O)n3cccc(C)c3nc2n1Cc1ccco1 | active: 0.58 µM | 
48 | COc1cc2c(cc1OC)C1(C)N(CC2)C(C(C)=O)=NN1c1ccc(Cl)cc1 (stereo not given) | inconclusive: 29.1 µM [activator, single point] | 
49 | COc1cccc2c(SCC(=O)N/N=C/c3ccc(O)c(O)c3)cc(C)nc12 | inconclusive: 14.6 µM [activator, partial curve] | 
50 | O=C(COC(=O)c1cc(Br)ccc1O)NNC(=O)c1ccc(Cl)cc1 |  | inactive: -5.61%
51 | Fc1ccc(Oc2nc(-c3ccccn3)nc3ccccc23)cc1 |  | inactive: 62.8%
52 | Cc1ccc(/C=[N+](\[O-])c2ccc(N(C)C)cc2)c2nsnc12 | inconclusive: 4.11 µM [activator, full curve] | 
53 | CC(C)[C@H](NC(=O)C1CCCC1)c1nc2ccccc2[nH]1 | inconclusive: 0.0073 µM [activator, full curve, poor fit] | 
54 | O=C(NCc1ccccc1)C1=C[C@H](C2CCCCC2)C[C@H](OCc2ccc(CO)cc2)O1 | inconclusive: 23.1 µM [activator, partial curve, poor fit] | 
55 | CCOC(=O)C1(CCOc2ccccc2)CCN(Cc2ccc(O)c(OCC)c2)CC1 | inconclusive: 29.1 µM [activator, single point] | 
56 | CCOC(=O)C1(CCCc2ccccc2)CCN(C2CCSCC2)CC1 | inconclusive: 29.1 µM [activator, single point] | 
57 | O=C(c1cc([N+](=O)[O-])ccc1N1CCCCC1)N1CCCCC1 |  | inactive: -9.21%
58 | O=C(/C=C/c1ccco1)NC(=S)Nc1ccccc1N1CCOCC1 | inconclusive: 18.4 µM [activator, single point] | 
59 | CC(C)(C)OC(=O)[C@H](Cc1ccccc1)NC(=O)c1nc[nH]c1C(=O)N[C@@H](CCCCN)C(=O)OC(C)(C)C | inconclusive: 23.1 µM [activator, single point] | 
60 | O=C(Cc1ccc(F)cc1)OCC(=O)c1cc2ccccc2o1 |  | inactive: -2.86% [at 9.22 µM]
61 | Oc1ccc(/C=N/Nc2ccnc3cc(Cl)ccc23)c(O)c1 | inconclusive: 16.4 µM [activator, partial curve] | 
62 | COc1ccc(Cc2noc(CN3CCNC(=O)CC3)n2)cc1OC |  | inactive: -37.5%
63 | O=C1c2cccc3cc([N+](=O)[O-])cc(c23)C(=O)N1CCN1CCCC1 | inconclusive: 1.84 µM [activator, full curve, poor fit] | 
64 | C/C(=N\Nc1ccc(Cl)cc1)c1c(O)cc(C)oc1=O |  | inactive: 18.6%
65 | S=c1[nH]nc(Cc2cccs2)n1-c1ccccc1Cl | inconclusive: 23.1 µM [activator, single point] | 
